These are yes or no findings as the source states them, for the method shown. Some results given as binding are weak or reduced against the parent protein; the word gives no strength. For part of these data: Tags and fused reporters may be left off the sequences shown.

Protein sequences, listed by entry. Tags and fused reporters are not part of them. Lines headed by an entry give the natural chain unless they say otherwise; changes in a name come on top.
UniProt Q8TEK3: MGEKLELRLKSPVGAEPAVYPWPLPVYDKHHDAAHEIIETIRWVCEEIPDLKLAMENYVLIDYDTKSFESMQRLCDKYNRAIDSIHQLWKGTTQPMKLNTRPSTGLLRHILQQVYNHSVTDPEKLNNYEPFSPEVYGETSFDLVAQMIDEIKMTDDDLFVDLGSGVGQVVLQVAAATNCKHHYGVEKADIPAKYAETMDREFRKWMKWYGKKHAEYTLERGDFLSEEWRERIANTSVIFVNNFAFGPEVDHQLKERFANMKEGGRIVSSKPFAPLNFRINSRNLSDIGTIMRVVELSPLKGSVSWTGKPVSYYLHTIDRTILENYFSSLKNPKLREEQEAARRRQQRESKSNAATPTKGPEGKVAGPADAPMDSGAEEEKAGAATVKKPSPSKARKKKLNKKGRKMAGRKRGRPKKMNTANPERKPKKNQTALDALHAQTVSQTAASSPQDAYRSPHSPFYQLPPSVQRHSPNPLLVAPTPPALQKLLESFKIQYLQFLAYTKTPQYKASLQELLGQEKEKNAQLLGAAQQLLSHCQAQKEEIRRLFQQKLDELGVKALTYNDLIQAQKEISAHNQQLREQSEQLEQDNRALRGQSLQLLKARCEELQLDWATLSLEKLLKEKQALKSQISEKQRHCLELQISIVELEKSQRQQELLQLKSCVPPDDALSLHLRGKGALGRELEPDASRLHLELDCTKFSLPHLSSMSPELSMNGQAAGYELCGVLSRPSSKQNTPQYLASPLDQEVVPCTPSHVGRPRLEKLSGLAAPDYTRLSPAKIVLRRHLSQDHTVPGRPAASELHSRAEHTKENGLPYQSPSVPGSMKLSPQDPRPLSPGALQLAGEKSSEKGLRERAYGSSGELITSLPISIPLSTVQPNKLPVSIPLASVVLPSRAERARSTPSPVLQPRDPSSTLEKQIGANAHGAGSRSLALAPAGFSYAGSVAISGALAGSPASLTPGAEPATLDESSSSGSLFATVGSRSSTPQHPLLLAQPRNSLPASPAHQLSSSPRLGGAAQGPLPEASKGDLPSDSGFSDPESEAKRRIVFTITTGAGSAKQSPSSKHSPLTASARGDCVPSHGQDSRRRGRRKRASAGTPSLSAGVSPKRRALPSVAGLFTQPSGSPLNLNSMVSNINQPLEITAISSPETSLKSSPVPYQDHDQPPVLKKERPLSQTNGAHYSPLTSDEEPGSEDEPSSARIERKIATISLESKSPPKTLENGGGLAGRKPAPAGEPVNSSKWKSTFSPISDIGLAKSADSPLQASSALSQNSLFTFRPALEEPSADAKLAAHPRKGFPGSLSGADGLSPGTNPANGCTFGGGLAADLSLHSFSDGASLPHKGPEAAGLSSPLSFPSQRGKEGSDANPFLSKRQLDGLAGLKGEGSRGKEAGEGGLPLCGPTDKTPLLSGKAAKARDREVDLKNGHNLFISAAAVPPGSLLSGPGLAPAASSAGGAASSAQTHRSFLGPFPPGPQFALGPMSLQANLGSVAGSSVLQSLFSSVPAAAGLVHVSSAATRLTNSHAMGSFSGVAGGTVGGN
UniProt Q08943: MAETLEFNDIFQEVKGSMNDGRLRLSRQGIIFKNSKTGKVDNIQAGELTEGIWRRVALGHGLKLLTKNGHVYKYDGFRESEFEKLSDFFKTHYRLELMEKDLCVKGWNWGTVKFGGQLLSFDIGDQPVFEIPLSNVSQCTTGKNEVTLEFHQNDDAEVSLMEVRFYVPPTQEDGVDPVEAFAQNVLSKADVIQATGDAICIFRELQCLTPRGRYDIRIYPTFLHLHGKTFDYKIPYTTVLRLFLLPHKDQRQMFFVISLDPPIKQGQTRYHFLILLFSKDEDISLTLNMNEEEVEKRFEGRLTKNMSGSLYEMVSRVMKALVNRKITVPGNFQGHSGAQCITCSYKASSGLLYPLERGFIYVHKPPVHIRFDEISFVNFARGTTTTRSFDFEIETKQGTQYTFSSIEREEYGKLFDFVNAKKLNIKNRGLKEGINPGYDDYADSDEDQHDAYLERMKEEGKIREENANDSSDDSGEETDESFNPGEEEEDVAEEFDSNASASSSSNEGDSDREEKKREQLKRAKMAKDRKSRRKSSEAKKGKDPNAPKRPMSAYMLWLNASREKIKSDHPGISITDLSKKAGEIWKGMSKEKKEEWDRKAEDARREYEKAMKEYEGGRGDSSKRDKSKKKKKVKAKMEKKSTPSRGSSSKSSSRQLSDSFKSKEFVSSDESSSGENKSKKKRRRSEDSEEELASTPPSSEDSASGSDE
UniProt Q6XZL8: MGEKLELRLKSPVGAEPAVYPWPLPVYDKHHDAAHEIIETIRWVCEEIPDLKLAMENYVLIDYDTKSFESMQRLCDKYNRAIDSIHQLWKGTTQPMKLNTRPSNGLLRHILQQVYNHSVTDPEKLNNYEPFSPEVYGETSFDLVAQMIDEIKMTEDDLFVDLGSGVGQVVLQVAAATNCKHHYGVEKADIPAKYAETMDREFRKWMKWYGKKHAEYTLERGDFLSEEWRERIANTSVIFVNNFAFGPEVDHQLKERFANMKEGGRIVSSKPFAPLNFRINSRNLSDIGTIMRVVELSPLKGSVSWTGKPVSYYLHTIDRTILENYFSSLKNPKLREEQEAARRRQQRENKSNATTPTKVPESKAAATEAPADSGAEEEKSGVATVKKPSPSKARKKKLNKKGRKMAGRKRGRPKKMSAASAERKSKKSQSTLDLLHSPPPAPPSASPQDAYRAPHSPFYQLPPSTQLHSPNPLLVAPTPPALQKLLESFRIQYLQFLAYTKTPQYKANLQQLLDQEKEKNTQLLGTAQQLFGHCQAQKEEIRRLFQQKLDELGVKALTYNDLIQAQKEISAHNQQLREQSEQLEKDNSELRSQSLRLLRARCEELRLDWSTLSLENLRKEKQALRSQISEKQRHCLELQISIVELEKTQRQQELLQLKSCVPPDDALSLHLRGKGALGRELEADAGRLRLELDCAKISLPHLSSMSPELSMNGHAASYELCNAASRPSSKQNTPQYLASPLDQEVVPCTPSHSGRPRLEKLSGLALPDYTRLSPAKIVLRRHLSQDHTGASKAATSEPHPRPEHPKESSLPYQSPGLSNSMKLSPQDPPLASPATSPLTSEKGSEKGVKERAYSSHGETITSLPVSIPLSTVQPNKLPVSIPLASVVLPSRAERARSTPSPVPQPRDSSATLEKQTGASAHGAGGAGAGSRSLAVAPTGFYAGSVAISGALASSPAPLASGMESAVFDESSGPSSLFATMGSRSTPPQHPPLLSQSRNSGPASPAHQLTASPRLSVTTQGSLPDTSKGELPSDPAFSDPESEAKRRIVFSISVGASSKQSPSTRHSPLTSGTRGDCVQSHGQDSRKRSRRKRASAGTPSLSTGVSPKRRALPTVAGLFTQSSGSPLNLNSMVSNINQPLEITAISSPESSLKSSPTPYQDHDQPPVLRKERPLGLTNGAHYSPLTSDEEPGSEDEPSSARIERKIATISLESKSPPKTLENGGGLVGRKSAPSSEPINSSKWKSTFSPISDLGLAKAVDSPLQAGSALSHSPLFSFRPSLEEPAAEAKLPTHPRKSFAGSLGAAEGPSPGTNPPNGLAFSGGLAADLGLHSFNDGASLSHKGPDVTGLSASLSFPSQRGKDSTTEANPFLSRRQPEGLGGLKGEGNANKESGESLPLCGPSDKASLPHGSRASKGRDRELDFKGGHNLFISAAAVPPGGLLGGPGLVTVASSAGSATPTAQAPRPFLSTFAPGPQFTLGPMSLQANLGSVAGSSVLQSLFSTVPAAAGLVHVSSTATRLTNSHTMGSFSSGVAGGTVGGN

The target of one test is TetR fused to DOT1L (UniProt Q8TEK3). Description: TetR recruitment to a TetO array, read by ChIP-qPCR. On the technique in general: Quantitative PCR measures a nucleic acid by following its amplification.
Another test deals with T1, TetR fused to ENL (UniProt Q03111).
T1 sequence: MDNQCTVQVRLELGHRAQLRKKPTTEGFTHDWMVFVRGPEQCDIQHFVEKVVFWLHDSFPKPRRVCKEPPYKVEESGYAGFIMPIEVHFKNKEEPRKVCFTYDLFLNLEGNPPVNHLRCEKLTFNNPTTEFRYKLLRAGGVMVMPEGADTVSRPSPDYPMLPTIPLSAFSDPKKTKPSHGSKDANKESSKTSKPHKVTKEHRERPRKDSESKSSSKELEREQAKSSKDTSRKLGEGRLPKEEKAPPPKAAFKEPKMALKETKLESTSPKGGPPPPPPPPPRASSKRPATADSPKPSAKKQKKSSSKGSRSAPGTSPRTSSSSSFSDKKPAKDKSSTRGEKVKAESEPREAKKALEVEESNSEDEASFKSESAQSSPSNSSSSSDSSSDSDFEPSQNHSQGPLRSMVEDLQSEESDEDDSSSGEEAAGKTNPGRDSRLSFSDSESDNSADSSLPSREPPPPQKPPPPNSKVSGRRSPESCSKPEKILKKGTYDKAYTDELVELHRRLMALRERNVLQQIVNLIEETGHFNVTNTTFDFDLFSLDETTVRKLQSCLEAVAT
The test is described as above.

As for “FACT, endogenous in mESCs (read through Ssrp1) (from UniProt Q08943 1-708; Q920B9 1-1047) (complex)”, the binding entry in the test with TetR fused to DOT1L and in the test with TetR fused to ENL was “binds” in each case. Consider “DOT1L, endogenous in mESCs (from UniProt Q6XZL8 1-1540)”, for which the binding result with TetR fused to ENL was “binds”.

The values above are taken from publication doi:10.1101/2022.05.27.493676.
